Test results: PubChem BioAssay AID256 (DTP/NCI, 2004)
The list shows only some results of the screen, not a fair sample: it gathers tests that were run many times, whatever their T/C, doses with no T/C, and many T/C values between a quarter and a half above the control. Other doses and runs of a compound stand elsewhere. T/C is the treated group as % of the vehicle group. Some doses have a count of surviving animals in place of a T/C: the source holds a T/C of zero for them, seemingly a mark for toxic or unscored doses. Some doses without a T/C left all or most animals alive at the check, yet need not have been tolerated: survival well below the control is almost never listed, so the zero probably covers shortened survival too. Counts of survivors are from the toxicity check (mostly the fifth day) where no day follows; animals may have died later. Schedules are NCI's codes, taken here to give the interval after Q, in days (D) or hours (H), and the number of doses after X. Where survival is the endpoint, the PubChem record calls one and a half times the control and up active, and a quarter to a half above the control has no call in these data; cut-offs in other NCI protocols can differ.

System: CD2F1 mice, L1210 leukemia ip, survival T/C
Assay: NCI In Vivo Anticancer Drug Screen. Data for tumor model L1210 Leukemia (intraperitoneal) in CD2F1 (CDF1) mice
Conditions: higher T/C = longer survival
Method in brief: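 Compound-dosed mice with transplantable tumor versus matched vehicle controls; endpoint ratio T/C reported.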

[1] = T/C endpoint: mean survival time, dose: 400.0 mg/kg/injection, schedule: Q01DX009 (ip), vehicle: saline
[2] = T/C endpoint: mean survival time, dose: 400.0 mg/kg/injection, schedule: Q04DX003 (ip), vehicle: saline with Tween-80
[3] = T/C endpoint: mean survival time, dose: 400.0 mg/kg/injection, schedule: Q04DX003 (ip), vehicle: saline
[4] = T/C endpoint: mean survival time, dose: 100.0 mg/kg/injection, schedule: Q01DX009 (ip), vehicle: saline
[5] = T/C endpoint: mean survival time, dose: 100.0 mg/kg/injection, schedule: Q01DX001 (ip), vehicle: saline with Tween-80
[6] = T/C endpoint: mean survival time, dose: 200.0 mg/kg/injection, schedule: Q01DX001 (ip), vehicle: saline with Tween-80
[7] = T/C endpoint: mean survival time, dose: 400.0 mg/kg/injection, schedule: Q01DX001 (ip), vehicle: saline with Tween-80
[8] = T/C endpoint: mean survival time, dose: 100.0 mg/kg/injection, schedule: Q04DX003 (ip), vehicle: saline with Tween-80
[9] = T/C endpoint: mean survival time, dose: 200.0 mg/kg/injection, schedule: Q04DX003 (ip), vehicle: saline with Tween-80

Cc1ccc2c(c1)n([O-])c1cc(Cl)ccc1[n+]2=O
T/C (T/C endpoint: median survival time, dose: 25.0 mg/kg/injection, schedule: Q01DX009 (ip), vehicle: saline with Tween-80): 126 % of control | T/C (T/C endpoint: median survival time, dose: 100.0 mg/kg/injection, schedule: Q01DX009 (ip), vehicle: saline with Tween-80): 126 % of control

CN(C)CCSc1cc(O)c2c(c1O)C(=O)c1ccccc1C2=O
survivor count (T/C endpoint: mean survival time, dose: 400.0 mg/kg/injection, schedule: Q01DX009 (ip), vehicle: water): 2 of 6

O=NN(CCCl)C(=O)NC1CCCN(Cc2ccccc2)C1 (centres undefined)
T/C (T/C endpoint: mean survival time, dose: 25.0 mg/kg/injection, schedule: Q01DX001 (ip), vehicle: saline with Tween-80): 131 % of control

OC[CH2][Hg][Br]
survivor count (T/C endpoint: mean survival time, dose: 6.0 mg/kg/injection, schedule: Q01DX009 (ip), vehicle: saline): 6 of 6

O=C(CC(=O)C(F)(F)F)c1cccs1.O=C(CC(=O)C(F)(F)F)c1cccs1.O=C(CC(=O)C(F)(F)F)c1cccs1.[Sm]
survivor count (T/C endpoint: median survival time, dose: 400.0 mg/kg/injection, schedule: Q04DX002 (ip), vehicle: saline with Tween-80): 1 of 3

Cc1ccc(C2(SCC(N)C(=O)O)c3ccccc3-c3ccccc32)cc1 (centres undefined)
survivor count [1]: 0 of 6

C=CCc1cc(O)c(CC=C)cc1O
survivor count (T/C endpoint: mean survival time, dose: 400.0 mg/kg/injection, schedule: Q04DX002 (ip), vehicle: saline with Tween-80): 0 of 3

CC(C)=NO
survivor count [2]: 0 of 6

NCC(OC1CCCCC1)C(Cl)(Cl)Cl (centres undefined)
survivor count [2]: 0 of 6

CC(O)c1ccc2c(c1)N(CCCN1CCN(CCO)CC1)c1ccccc1S2 (centres undefined)
survivor count (T/C endpoint: mean survival time, dose: 200.0 mg/kg/injection, schedule: Q04DX003 (ip), vehicle: saline): 0 of 6 | survivor count [3]: 0 of 6

CC(=O)OCC1OC(OC(C)=O)C(On2nnc3c(-c4ccccc4)c(C)nn32)C(OC(C)=O)C1OC(C)=O (centres undefined)
survivor count (T/C endpoint: median survival time, dose: 200.0 mg/kg/injection, schedule: Q01DX005 (ip), vehicle: Klucel (hydroxypropylcellulose) (HPC)): 0 of 6

CO/N=C/c1ccc([N+](=O)[O-])s1
survivor count [4]: 2 of 6 | survivor count (T/C endpoint: mean survival time, dose: 200.0 mg/kg/injection, schedule: Q01DX009 (ip), vehicle: saline): 1 of 6

O=C(O)c1cccc(CBr)c1CBr
survivor count [5]: 0 of 6 | survivor count [6]: 0 of 6 | survivor count [7]: 0 of 6

Cc1cn(C2CCC3(C)C(=CCC4C3CCC3(C)C(C(C)CCCC(C)C)CCC43)C2)c(=O)[nH]c1=O (centres undefined)
survivor count (T/C endpoint: mean survival time, dose: 18.8 mg/kg/injection, schedule: Q01DX001 (ip), vehicle: Klucel (hydroxypropylcellulose) (HPC)): 3 of 3

CCOC(=O)Nc1cc(Cl)c2nnn(C(=O)OCC)c2n1
survivor count (T/C endpoint: mean survival time, dose: 200.0 mg/kg/injection, schedule: Q01DX005 (ip), vehicle: water): 0 of 6

O=C1CCCN1C1CC2c3ccccc3C1c1cccc[n+]12 (centres undefined)
survivor count [8]: 0 of 6 | survivor count [9]: 0 of 6 | survivor count [2]: 0 of 6

CCCCN(C)C(=O)Oc1cccc(NC(=O)OC)c1
survivor count (T/C endpoint: mean survival time, dose: 400.0 mg/kg/injection, schedule: Q01DX009 (ip), vehicle: saline with Tween-80): 3 of 6

C1SCC12CSC2
survivor count [5]: 0 of 3 | survivor count [6]: 0 of 3 | survivor count [7]: 0 of 3

NC(CCC(=O)NC(CSC(c1ccccc1)(c1ccccc1)c1ccc(F)cc1)C(=O)NCC(=O)O)C(=O)O (centres undefined)
T/C (T/C endpoint: mean survival time, dose: 50.0 mg/kg/injection, schedule: Q01DX009 (ip), vehicle: saline): 128 % of control | T/C [4]: 136 % of control | T/C [1]: 140 % of control

CC(C)S(=O)(=O)/C=C(\I)c1ccccc1
survivor count [3]: 2 of 6

O=S(=O)(O)SNCCN1CCOCC1
survivor count [8]: 0 of 6 | survivor count [9]: 1 of 6 | survivor count [2]: 3 of 6
